The text below walks through data of the M2OR odorant receptor database.

SMILES strings stand for the structures. This is a selection; strong and weak results do not stand in their true shares. Calls are pooled over several reports, among them a noisy single-well screen. The list shows a part of the results.

Conditions in all cases: stereoisomer not certain
One assay concerns T1, OR5H1.
T1 sequence (whole entry): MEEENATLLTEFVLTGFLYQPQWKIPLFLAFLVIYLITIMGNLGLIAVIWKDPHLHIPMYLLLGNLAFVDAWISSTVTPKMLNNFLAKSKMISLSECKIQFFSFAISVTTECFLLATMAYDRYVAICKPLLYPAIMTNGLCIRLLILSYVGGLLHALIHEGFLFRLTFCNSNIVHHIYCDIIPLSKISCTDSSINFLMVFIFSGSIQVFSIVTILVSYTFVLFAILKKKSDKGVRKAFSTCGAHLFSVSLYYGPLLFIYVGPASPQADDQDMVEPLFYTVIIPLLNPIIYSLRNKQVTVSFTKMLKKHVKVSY
A digest of the protocol:
(§1)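 Values were gathered from published papers (main text and supplementary material), with extra details requested from the original authors when needed, and checked for typos and inconsistencies. Each receptor–molecule pair is called responsive (active) if the original authors judged the measured signal statistically different from baseline, and non-responsive (inactive) otherwise. Assay methods varied by source, often transient mammalian cell-line luciferase assays. Recorded details include cell line, G-protein, co-transfected protein and tags.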

For assay [1], the system named is T2, OR5H2.
T2 sequence (whole entry): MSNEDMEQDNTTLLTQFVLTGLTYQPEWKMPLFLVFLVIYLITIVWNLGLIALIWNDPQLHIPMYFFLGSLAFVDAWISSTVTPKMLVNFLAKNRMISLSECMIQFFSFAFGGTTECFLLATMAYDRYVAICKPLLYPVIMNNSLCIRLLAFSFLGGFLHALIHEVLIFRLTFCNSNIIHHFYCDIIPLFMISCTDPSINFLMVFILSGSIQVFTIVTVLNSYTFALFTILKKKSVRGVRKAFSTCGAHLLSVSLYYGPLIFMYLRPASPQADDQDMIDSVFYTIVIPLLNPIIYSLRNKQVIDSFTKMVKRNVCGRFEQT
The method in brief:
as §1

The subject of assay [2] is T3, OR5H2.
T3 sequence (whole entry): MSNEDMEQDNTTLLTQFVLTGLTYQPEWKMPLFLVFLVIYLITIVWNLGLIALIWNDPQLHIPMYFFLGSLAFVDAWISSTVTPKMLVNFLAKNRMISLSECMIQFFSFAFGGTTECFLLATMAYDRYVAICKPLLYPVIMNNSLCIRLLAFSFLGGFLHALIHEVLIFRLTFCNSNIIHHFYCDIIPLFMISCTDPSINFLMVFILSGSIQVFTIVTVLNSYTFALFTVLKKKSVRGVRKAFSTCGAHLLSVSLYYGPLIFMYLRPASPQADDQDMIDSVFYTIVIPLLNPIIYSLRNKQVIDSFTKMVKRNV
A digest of the protocol: as §1
This is another data set of the same source.

In assay [3] the test system is T4, OR5H6.
T4 sequence (whole entry): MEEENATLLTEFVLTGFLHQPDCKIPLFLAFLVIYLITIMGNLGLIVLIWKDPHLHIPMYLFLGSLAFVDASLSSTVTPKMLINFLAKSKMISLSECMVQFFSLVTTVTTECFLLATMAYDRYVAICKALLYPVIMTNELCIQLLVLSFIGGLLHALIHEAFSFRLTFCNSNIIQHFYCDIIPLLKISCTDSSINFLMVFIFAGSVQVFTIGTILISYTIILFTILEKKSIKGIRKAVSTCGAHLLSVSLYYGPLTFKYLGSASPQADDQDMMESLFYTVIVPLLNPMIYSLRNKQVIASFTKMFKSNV
The method in brief: as §1

Assay [4] deals with T5, OR5H6.
T5 sequence (whole entry): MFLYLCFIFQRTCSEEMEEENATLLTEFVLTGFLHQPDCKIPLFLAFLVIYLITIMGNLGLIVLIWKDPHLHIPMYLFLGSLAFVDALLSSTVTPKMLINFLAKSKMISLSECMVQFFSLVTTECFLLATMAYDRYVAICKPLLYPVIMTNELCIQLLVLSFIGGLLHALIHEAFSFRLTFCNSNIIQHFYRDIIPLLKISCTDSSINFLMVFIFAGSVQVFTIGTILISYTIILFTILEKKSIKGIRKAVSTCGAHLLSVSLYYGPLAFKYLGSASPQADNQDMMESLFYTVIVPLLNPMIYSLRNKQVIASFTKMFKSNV
The method in brief: as §1
This is another data set of the same source.

A further assay concerns the target T6, OR5I1 (Homo sapiens) (UniProt Q13606).
T6 sequence (whole entry): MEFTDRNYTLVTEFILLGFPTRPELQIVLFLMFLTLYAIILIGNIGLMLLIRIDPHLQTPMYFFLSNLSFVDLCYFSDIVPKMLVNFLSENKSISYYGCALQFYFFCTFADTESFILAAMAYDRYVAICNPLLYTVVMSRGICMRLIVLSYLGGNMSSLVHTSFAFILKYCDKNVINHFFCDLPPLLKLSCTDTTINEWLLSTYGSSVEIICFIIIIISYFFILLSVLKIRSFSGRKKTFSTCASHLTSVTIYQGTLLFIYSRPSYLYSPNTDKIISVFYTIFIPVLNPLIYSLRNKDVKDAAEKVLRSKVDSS
A digest of the protocol:
as §1

Another assay concerns the target T7, OR5J2 (Homo sapiens) (UniProt Q8NH18).
T7 sequence (whole entry): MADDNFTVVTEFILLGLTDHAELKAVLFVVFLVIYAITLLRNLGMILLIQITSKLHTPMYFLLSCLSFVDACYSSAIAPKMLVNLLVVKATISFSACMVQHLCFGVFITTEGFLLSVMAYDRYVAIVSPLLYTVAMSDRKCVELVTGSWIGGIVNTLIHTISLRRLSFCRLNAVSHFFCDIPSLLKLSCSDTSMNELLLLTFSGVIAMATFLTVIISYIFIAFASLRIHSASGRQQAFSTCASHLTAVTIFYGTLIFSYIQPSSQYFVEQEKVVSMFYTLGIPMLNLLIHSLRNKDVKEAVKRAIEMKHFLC
The method in brief:
as §1

As to `CCCCCCCCCCC=O`, the “odorant receptor agonist call” value in the assay on OR5H1, in the assay with OR5H2 [1], in the assay with OR5H2 [2], in the assay on OR5H6 [3], in the assay with OR5H6 [4] and with OR5I1 (Homo sapiens) was “inactive” in each case. For the same compound, the “odorant receptor agonist call” value with OR5J2 (Homo sapiens) was “active”.

Regarding `COc1ccccc1O`, the “odorant receptor agonist call” value in the assay on OR5H1, in the assay with OR5H2 [1], in the assay with OR5H2 [2], with OR5H6 [3], in the assay with OR5H6 [4] and with OR5J2 (Homo sapiens) was “inactive” throughout. For the same compound, the “odorant receptor agonist call” value in the assay with OR5I1 (Homo sapiens) is “active”.

With `C=CCc1ccc(OC)c(OC)c1`, the “odorant receptor agonist call” value in the assay with OR5H1, in the assay on OR5H2 [1], in the assay with OR5H2 [2], in the assay with OR5H6 [3], in the assay on OR5H6 [4] and with OR5I1 (Homo sapiens) was “inactive” in each case. Further, the “odorant receptor agonist call” value in the assay with OR5J2 (Homo sapiens) is “inactive”.

For `CCC=CCCO`, the “odorant receptor agonist call” value in the assay with OR5H1, in the assay with OR5H2 [1], in the assay with OR5H2 [2], in the assay on OR5H6 [3], in the assay on OR5H6 [4] and in the assay with OR5I1 (Homo sapiens) was “inactive” in each case. Also, the “odorant receptor agonist call” value with OR5J2 (Homo sapiens) was “inactive”.

On to `CCCC(=O)O`, for which the “odorant receptor agonist call” value in the assay with OR5H1, in the assay with OR5H2 [1], in the assay with OR5H2 [2], in the assay with OR5H6 [3], in the assay on OR5H6 [4] and with OR5I1 (Homo sapiens) was “inactive” each time. For the same compound, the “odorant receptor agonist call” value with OR5J2 (Homo sapiens) is “inactive”.

As to `C=CCc1ccc(OC(C)=O)c(OC)c1`, the “odorant receptor agonist call” value in the assay on OR5H1, in the assay with OR5H2 [1], with OR5H2 [2], with OR5H6 [3] and in the assay with OR5H6 [4] was “inactive” throughout. The “odorant receptor agonist call” value with OR5I1 (Homo sapiens) and with OR5J2 (Homo sapiens) was “active” in each case.

As for `CCCCCCCCCC=O`, the “odorant receptor agonist call” value in the assay with OR5H1, in the assay with OR5H2 [1], in the assay with OR5H2 [2], with OR5H6 [3], with OR5H6 [4] and with OR5I1 (Homo sapiens) was “inactive” in each case. The “odorant receptor agonist call” value with OR5J2 (Homo sapiens) was “inactive”.

Regarding `CCCCCCCC=CC=O`, the “odorant receptor agonist call” value in the assay with OR5H1, in the assay with OR5H2 [1], in the assay with OR5H2 [2], with OR5H6 [4], in the assay with OR5I1 (Homo sapiens) and with OR5J2 (Homo sapiens) was “inactive” each time. Further, the “odorant receptor agonist call” value in the assay with OR5H6 [3] was “active”.

On to `CC(C)CCC(=O)O`, for which the “odorant receptor agonist call” value in the assay on OR5H1, in the assay on OR5H2 [1], in the assay on OR5H2 [2], in the assay on OR5H6 [3], in the assay with OR5H6 [4] and with OR5I1 (Homo sapiens) was “inactive” throughout. Further, the “odorant receptor agonist call” value with OR5J2 (Homo sapiens) is “inactive”.

Take `COc1cc(C)ccc1O`: the “odorant receptor agonist call” value with OR5H1, in the assay on OR5H2 [1], in the assay on OR5H2 [2], in the assay on OR5H6 [3], in the assay with OR5H6 [4] and with OR5I1 (Homo sapiens) was “inactive” each time. Further, in the assay with OR5J2 (Homo sapiens), the “odorant receptor agonist call” value was “inactive”.

`CC12C=CCC1C1CCC3=CC(=O)CCC3(C)C1CC2` (centres undefined): the “odorant receptor agonist call” value in the assay with OR5H1, in the assay with OR5H2 [1], in the assay on OR5H2 [2], in the assay with OR5H6 [3], in the assay on OR5H6 [4] and with OR5I1 (Homo sapiens) was “inactive” throughout. In the assay with OR5J2 (Homo sapiens), the “odorant receptor agonist call” value is “inactive”.

Consider `CC12CCC(CC1)C(C)(C)O2`, for which the “odorant receptor agonist call” value in the assay with OR5H1, in the assay on OR5H2 [1], in the assay with OR5H2 [2], with OR5H6 [3], with OR5H6 [4] and with OR5I1 (Homo sapiens) was “inactive” throughout. The “odorant receptor agonist call” value in the assay with OR5J2 (Homo sapiens) is “inactive”.
